Source: the supplement of paper PMC9254222
In all, about 1,100 compounds were measured (“Renilla luciferase signal (cell health) relative to plate median”: median about 0.97, highest 2% from about 1.6 on). This is a selection; strong and weak results do not stand in their true shares.

Test system: HEK293T (UBE3A T485A transfected, BAR Wnt reporter)
Assay: Renilla luciferase signal (cell health) relative to plate median (fold (linear ratio)); higher = higher Renilla signal
Conditions: 24 h
Procedure, shortened: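 HEK293T cells carrying a transfected BAR firefly luciferase Wnt reporter, TK-Renilla and an expression plasmid were exposed to chemicals at 0.01–100 uM for 24 h, with dosing four hours after transfection. Readout used Dual-Glo luciferase. The firefly/Renilla ratio defined Wnt activity and raw Renilla defined cell health, each median-centred per plate. Figures are means of four biological replicates.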

SMILES	Renilla luciferase signal (concentration: 0.1 uM)	Renilla luciferase signal (concentration: 1 uM)	Renilla luciferase signal (concentration: 10 uM)	Renilla luciferase signal (concentration: 100 uM)	Renilla luciferase signal (concentration: 0.01 uM)
O=P(OC(CCl)CCl)(OC(CCl)CCl)OC(CCl)CCl	1.02	1.07	0.997	0.466	–
Oc1cc(Cl)c(Cl)cc1Cl [2,4,5-Trichlorophenol]	0.91	0.887	0.884	0.0359	–
Clc1nc(Cl)c(Cl)c(Cl)c1Cl [Pentachloropyridine]	0.994	0.982	1.12	0.962	–
CCCCOC(=O)c1ccccc1C(=O)O [Monobutyl phthalate]	0.862	0.73	1.21	2.17	0.968
CNC(=S)[S-].O.O.O.[Na+] [Metam-sodium hydrate]	–	–	–	1.67	–
COc1ccc(-c2ccccc2)cc1NNC(=O)OC(C)C [Bifenazate]	1.21	1.11	1.06	0.851	1.24
O=[N+]([O-])c1ccc(Cl)c(Cl)c1 [3,4-Dichloronitrobenzene]	1.12	1.04	1	1.27	–
O=C(O)COc1nc(Cl)c(Cl)cc1Cl [Triclopyr]	–	–	–	1.84	–
O=C(O)c1cc(Oc2ccc(C(F)(F)F)cc2Cl)ccc1[N+](=O)[O-] [Acifluorfen]	1.25	0.942	1.02	1.67	1.17
CC(C)Nc1nc(Cl)nc(NC(C)C)n1 [Propazine]	0.863	0.911	0.848	1.3	0.624
CCOC(=O)C(C)OC(=O)c1cc(Oc2ccc(C(F)(F)F)cc2Cl)ccc1[N+](=O)[O-] (configuration not stated) [Lactofen]	0.611	0.876	0.801	0.32	0.928
COS(C)(=O)=O [Methyl methanesulfonate]	0.955	0.933	1.04	1.2	–
C[C@]12CCC(=O)C=C1CC[C@@H]1[C@@H]2CC[C@@]2(C)[C@H]1CC[C@]2(C)O [17-Methyltestosterone]	0.928	0.85	0.954	0.291	–
c1nc[nH]n1 [1H-1,2,4-Triazole]	0.873	0.956	0.885	1.12	–
O=[N+]([O-])c1ccc(Oc2ccc(Cl)cc2Cl)cc1 [Nitrofen]	1.06	1.17	1.05	1.69	–
ClC(Cl)(Cl)c1ccccc1 [Benzotrichloride]	0.82	0.9	0.872	1.04	–
Cc1cc(O)ccc1Cl [4-Chloro-3-methylphenol]	0.999	1.09	0.977	1.06	–
CCOP(=S)(OCC)OC(Cl)C(Cl)(Cl)Cl (configuration not stated) [Chlorethoxyfos]	0.673	0.754	0.769	1.03	0.648
CN(C)C(=S)SSC(=S)N(C)C [Thiram]	1.02	0.965	1.13	0.0483	1.24
CCC12COCN1COC2 [5-Ethyl-1-aza-3,7-dioxabicyclo[3.3.0]octane]	0.93	1.08	1.1	1.35	–
CCC(=O)Nc1ccc(Cl)c(Cl)c1 [Propanil]	1.07	1.04	1.09	0.949	1.29
CCCCC(CC)COC(=O)CCCCC(=O)OCC(CC)CCCC (configuration not stated) [Di(2-ethylhexyl) adipate]	1.15	1.09	1.28	1.76	–

Nothing new here: entries from further up.
SMILES	Renilla luciferase signal (concentration: 0.1 uM)	Renilla luciferase signal (concentration: 1 uM)	Renilla luciferase signal (concentration: 10 uM)	Renilla luciferase signal (concentration: 100 uM)	Renilla luciferase signal (concentration: 0.01 uM)
CCCCOC(=O)c1ccccc1C(=O)O [Monobutyl phthalate]	0.862	0.73	1.21	2.17	0.968
CNC(=S)[S-].O.O.O.[Na+] [Metam-sodium hydrate]	–	–	–	1.67	–
COc1ccc(-c2ccccc2)cc1NNC(=O)OC(C)C [Bifenazate]	1.21	1.11	1.06	0.851	1.24
O=[N+]([O-])c1ccc(Cl)c(Cl)c1 [3,4-Dichloronitrobenzene]	1.12	1.04	1	1.27	–
O=C(O)COc1nc(Cl)c(Cl)cc1Cl [Triclopyr]	–	–	–	1.84	–
O=C(O)c1cc(Oc2ccc(C(F)(F)F)cc2Cl)ccc1[N+](=O)[O-] [Acifluorfen]	1.25	0.942	1.02	1.67	1.17
CC(C)Nc1nc(Cl)nc(NC(C)C)n1 [Propazine]	0.863	0.911	0.848	1.3	0.624
CCOC(=O)C(C)OC(=O)c1cc(Oc2ccc(C(F)(F)F)cc2Cl)ccc1[N+](=O)[O-] (configuration not stated) [Lactofen]	0.611	0.876	0.801	0.32	0.928
COS(C)(=O)=O [Methyl methanesulfonate]	0.955	0.933	1.04	1.2	–
C[C@]12CCC(=O)C=C1CC[C@@H]1[C@@H]2CC[C@@]2(C)[C@H]1CC[C@]2(C)O [17-Methyltestosterone]	0.928	0.85	0.954	0.291	–
c1nc[nH]n1 [1H-1,2,4-Triazole]	0.873	0.956	0.885	1.12	–
O=[N+]([O-])c1ccc(Oc2ccc(Cl)cc2Cl)cc1 [Nitrofen]	1.06	1.17	1.05	1.69	–
ClC(Cl)(Cl)c1ccccc1 [Benzotrichloride]	0.82	0.9	0.872	1.04	–
Cc1cc(O)ccc1Cl [4-Chloro-3-methylphenol]	0.999	1.09	0.977	1.06	–

Next part.

SMILES	Renilla luciferase signal (concentration: 0.1 uM)	Renilla luciferase signal (concentration: 1 uM)	Renilla luciferase signal (concentration: 10 uM)	Renilla luciferase signal (concentration: 100 uM)	Renilla luciferase signal (concentration: 0.01 uM)
CCN(CC)N=O [N-Nitrosodiethylamine]	1.02	0.957	1.07	1.08	–
O=C(O)c1c(Cl)ccc2cc(Cl)cnc12 [Quinclorac]	–	–	–	1.88	–
CNC(=O)Oc1cccc(N=CN(C)C)c1.Cl [Formetanate hydrochloride]	1.22	1.08	0.952	0.867	1.24
CNC(=O)Oc1ccccc1OC(C)C [Propoxur]	0.899	0.869	0.843	1.18	0.908
CCCOC/C(=N\c1ccc(Cl)cc1C(F)(F)F)n1ccnc1 [Triflumizole]	0.937	0.992	0.929	1.45	0.984
CON=C(C(=O)OC)c1ccccc1CON=C(C)c1cccc(C(F)(F)F)c1 [Trifloxystrobin]	0.97	0.972	0.619	0.0462	0.998
CSC(=O)c1c(C(F)F)nc(C(F)(F)F)c(C(=O)SC)c1CC(C)C [Dithiopyr]	0.813	0.927	0.835	1.14	0.664
O=C1C2CC=CCC2C(=O)N1SC(Cl)(Cl)Cl (configuration not stated) [Captan]	1.04	0.975	1.02	0.036	1.19
CN=C=S [Methyl isothiocyanate]	–	–	–	1.71	–
CCOCCOC(C)=O [2-Ethoxyethyl acetate]	1.02	0.9	0.931	0.935	–
CC(C)N(C(=O)SCC(Cl)=C(Cl)Cl)C(C)C [Tri-allate]	–	–	–	1.76	–
CCNc1nc(Cl)nc(NC(C)(C)C)n1 [Terbutylazine]	0.934	1.02	0.978	0.981	–
Cc1cccc([N+](=O)[O-])c1C [1,2-Dimethyl-3-nitrobenzene]	1.03	0.965	1.03	1.13	–
C=C(C)CN(CC)c1c([N+](=O)[O-])cc(C(F)(F)F)cc1[N+](=O)[O-] [Ethalfluralin]	1.03	1.09	1.14	1.31	1.26
CN(C)c1ccc(C(=O)c2ccc(N(C)C)cc2)cc1 [Michler's ketone]	1.09	1.03	0.702	0.267	–
CC1=C2C[C@H]3[C@@H](CC=C4C[C@@H](O)CC[C@@]43C)[C@@H]2CC[C@]12O[C@@H]1C[C@H](C)CN[C@H]1[C@H]2C [Cyclopamine]	0.676	0.805	0.631	0.1	–
CCCCCCCCCCCCCN1CC(C)OC(C)C1 (configuration not stated) [Tridemorph]	1.09	0.987	1.02	1.13	–
CC(C)(OOC(C)(C)c1ccccc1)c1ccccc1 [Dicumyl peroxide]	0.858	0.921	0.947	1.09	–
Cn1sc(Cl)cc1=O [5-Chloro-2-methyl-3(2H)-isothiazolone]	0.935	0.861	1.02	0.105	–
CCC(C)n1c(=O)[nH]c(C)c(Br)c1=O (configuration not stated) [Bromacil]	0.99	1.09	1.05	1.59	0.972
Oc1ccc2ccc3cccc4ccc1c2c34 [1-Hydroxypyrene]	1.01	1.06	1.09	0.811	–
COc1ccc(O)c(C(C)(C)C)c1 [2-tert-Butyl-4-methoxyphenol]	0.947	0.971	1.22	1.03	–

SMILES	Renilla luciferase signal (concentration: 0.1 uM)	Renilla luciferase signal (concentration: 1 uM)	Renilla luciferase signal (concentration: 10 uM)	Renilla luciferase signal (concentration: 100 uM)	Renilla luciferase signal (concentration: 0.01 uM)
O=C(CCl)c1ccccc1 [2-Chloroacetophenone]	1.01	1.01	0.922	0.594	–
C[n+]1ccc(-c2cc[n+](C)cc2)cc1 [Paraquat]	–	–	–	2.18	–
CCOP(=S)(OCC)SCSP(=S)(OCC)OCC [Ethion]	0.929	0.935	0.973	1.13	–
O=C(O)C(F)(F)C(F)(F)C(F)(F)C(F)(F)C(F)(F)C(F)(F)C(F)(F)C(F)(F)C(F)(F)C(F)(F)F [Perfluoroundecanoic acid]	0.861	0.837	0.868	0.248	–
CCC(=NOC/C=C/Cl)C1=C(O)CC(C2CCOCC2)CC1=O (configuration not stated) [Tepraloxydim]	1.05	0.941	1	0.793	1.23
CC1(C)CCC(=Cc2ccc(Cl)cc2)C1(O)Cn1cncn1 (configuration not stated) [Triticonazole]	0.934	0.904	1.1	1.01	0.745
COP(N)(=O)SC (configuration not stated) [Methamidophos]	0.989	1.14	1.04	2.27	1.08
Nc1nc(N)nc(NC2CC2)n1 [Cyromazine]	0.889	0.95	1.05	1.86	1.1
Nc1ccc([N+](=O)[O-])cc1 [4-Nitroaniline]	1	1.14	1.21	1.26	–
CCCCCCCCOC(=O)c1ccccc1C(=O)OCCCCCCCC [Dioctyl phthalate]	0.974	0.864	0.951	1.24	–
c1ccc(NNc2ccccc2)cc1 [1,2-Diphenylhydrazine]	0.914	0.888	0.819	0.993	–
CCCCCCCCCC[N+](C)(C)CCCCCCCCCC.[Cl-] [Didecyldimethylammonium chloride]	0.877	0.895	0.56	0.397	–
COc1ccc(C(c2ccc(OC)cc2)C(Cl)(Cl)Cl)cc1 [Methoxychlor]	1.02	1.12	1.05	0.345	1.35
CCNC(=O)NC(=O)/C(C#N)=N/OC [Cymoxanil]	1.16	1.08	1.15	2.39	1.26
O=c1ccc(=O)[nH][nH]1 [Maleic hydrazide]	1.01	0.977	1	1.54	0.956
c1ccc2c(c1)oc1ccccc12 [Dibenzofuran]	1.04	0.995	1.18	1.44	–
CNC(=O)ON=C(SC)C(=O)N(C)C [Oxamyl]	0.98	0.96	0.914	0.453	0.606
COP(=S)(OC)SCn1nnc2ccccc2c1=O [Azinphos-methyl]	0.859	0.934	0.897	0.768	0.899
CSc1nnc(C(C)(C)C)c(=O)n1N [Metribuzin]	0.918	0.968	0.925	1.02	0.764
CN(C)CCO [Dimethylaminoethanol]	0.893	1	0.901	1.28	–
COCCOCCO [Diethylene glycol monomethyl ether]	1.01	0.991	1.01	1.32	–
CCC(C)c1cc([N+](=O)[O-])cc([N+](=O)[O-])c1O (configuration not stated) [Dinoseb]	1.4	1.25	1.15	0.0233	–
